According to patent publication US9630941B2 (priority 2008, dated 2017):
For at least one compound, name, drawing or mass did not settle the structure.

Assay: Porcine buccal tissue homogenate stability
Format: in vitro ADME
Settings: protein concentration 2 mg/ml
Protocol: b. Porcine Buccal Tissue Homogenate Stability
Protein Concentration 2 mg/ml

## CCCCCc1cc(OC(=O)CNC)c2c(c1)OC(C)(C)[C@@H]1CCC(C)=C[C@@H]21 [THC-Sarcosinate (7), Δ^9-THC-sarcosinate]
  T1/2: 18.91 ± 0.4 3 min
